Results from the supplement of paper PMC10849652.
This is one part of the list.

Protein sequences, listed by entry. Tags and fused reporters are not part of them. Lines headed by an entry give the natural chain unless they say otherwise; changes in a name come on top.
UniProt Q14257: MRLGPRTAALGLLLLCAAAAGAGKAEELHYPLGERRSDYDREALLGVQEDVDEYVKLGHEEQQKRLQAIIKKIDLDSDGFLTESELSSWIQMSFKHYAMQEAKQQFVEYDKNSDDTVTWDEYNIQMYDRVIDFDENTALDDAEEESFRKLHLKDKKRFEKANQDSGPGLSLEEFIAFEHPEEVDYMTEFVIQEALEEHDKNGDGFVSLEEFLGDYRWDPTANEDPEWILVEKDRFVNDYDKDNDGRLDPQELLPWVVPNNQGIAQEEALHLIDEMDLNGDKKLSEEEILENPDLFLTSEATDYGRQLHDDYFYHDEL
UniProt Q969G6: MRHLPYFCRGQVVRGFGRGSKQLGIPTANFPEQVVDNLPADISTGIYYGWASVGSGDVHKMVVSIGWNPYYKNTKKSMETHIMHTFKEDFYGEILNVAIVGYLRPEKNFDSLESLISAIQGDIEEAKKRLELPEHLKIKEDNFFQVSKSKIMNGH
UniProt Q15293: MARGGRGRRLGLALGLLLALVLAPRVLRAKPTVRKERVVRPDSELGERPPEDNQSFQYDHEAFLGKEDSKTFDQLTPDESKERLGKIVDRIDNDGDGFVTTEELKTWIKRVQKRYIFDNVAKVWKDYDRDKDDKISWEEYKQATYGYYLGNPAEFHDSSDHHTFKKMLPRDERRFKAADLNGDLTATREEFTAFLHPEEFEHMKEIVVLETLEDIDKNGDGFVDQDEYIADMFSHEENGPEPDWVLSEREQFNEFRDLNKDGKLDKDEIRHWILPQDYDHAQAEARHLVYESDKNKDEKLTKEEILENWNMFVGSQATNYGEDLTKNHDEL
UniProt P78332: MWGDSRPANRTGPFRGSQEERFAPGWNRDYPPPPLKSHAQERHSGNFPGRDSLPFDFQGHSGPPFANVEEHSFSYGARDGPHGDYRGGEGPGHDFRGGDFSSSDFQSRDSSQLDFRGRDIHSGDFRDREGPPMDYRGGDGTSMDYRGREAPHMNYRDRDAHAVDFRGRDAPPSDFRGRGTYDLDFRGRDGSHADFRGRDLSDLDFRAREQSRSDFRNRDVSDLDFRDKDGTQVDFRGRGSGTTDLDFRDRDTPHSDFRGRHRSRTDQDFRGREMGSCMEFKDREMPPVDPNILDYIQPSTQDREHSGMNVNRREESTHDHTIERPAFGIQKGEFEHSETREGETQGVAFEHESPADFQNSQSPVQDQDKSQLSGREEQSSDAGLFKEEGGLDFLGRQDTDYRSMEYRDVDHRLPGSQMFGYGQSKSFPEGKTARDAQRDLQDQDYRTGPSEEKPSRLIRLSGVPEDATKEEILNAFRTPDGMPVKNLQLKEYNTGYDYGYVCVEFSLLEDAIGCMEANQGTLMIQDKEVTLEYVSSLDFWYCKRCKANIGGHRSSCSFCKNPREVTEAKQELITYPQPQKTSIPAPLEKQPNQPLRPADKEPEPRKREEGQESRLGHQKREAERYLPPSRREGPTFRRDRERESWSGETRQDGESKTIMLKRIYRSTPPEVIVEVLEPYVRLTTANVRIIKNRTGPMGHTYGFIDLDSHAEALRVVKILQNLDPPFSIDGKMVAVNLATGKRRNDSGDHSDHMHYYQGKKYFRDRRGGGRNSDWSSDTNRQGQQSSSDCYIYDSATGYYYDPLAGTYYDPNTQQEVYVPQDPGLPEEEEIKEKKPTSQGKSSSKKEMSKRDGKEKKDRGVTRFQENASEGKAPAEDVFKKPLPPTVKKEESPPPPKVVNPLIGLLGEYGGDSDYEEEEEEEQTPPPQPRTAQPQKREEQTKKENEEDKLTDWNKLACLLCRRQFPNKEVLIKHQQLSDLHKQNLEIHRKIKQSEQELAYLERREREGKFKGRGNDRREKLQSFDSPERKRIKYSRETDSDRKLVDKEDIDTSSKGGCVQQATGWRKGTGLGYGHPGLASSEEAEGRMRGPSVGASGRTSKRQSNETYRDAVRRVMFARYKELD
UniProt Q9Y256: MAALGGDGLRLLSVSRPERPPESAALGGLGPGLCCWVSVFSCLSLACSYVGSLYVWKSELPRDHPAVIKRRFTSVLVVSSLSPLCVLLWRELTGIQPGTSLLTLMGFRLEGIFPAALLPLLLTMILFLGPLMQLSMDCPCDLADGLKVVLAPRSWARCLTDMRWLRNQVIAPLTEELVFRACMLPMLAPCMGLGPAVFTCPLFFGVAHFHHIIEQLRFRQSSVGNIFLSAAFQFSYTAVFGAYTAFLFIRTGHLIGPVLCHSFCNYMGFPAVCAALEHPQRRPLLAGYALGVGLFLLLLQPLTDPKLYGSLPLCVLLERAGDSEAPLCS
UniProt P40937, whole entry, looked up: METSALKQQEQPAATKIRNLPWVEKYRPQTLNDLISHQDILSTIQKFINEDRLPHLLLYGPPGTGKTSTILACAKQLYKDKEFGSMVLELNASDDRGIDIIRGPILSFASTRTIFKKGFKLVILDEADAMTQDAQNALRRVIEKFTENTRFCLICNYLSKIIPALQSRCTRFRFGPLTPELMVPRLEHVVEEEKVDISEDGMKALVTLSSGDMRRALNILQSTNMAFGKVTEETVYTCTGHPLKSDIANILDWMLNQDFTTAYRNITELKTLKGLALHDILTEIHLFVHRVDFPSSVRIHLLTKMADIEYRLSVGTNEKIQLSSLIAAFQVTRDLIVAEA
UniProt A6NED2: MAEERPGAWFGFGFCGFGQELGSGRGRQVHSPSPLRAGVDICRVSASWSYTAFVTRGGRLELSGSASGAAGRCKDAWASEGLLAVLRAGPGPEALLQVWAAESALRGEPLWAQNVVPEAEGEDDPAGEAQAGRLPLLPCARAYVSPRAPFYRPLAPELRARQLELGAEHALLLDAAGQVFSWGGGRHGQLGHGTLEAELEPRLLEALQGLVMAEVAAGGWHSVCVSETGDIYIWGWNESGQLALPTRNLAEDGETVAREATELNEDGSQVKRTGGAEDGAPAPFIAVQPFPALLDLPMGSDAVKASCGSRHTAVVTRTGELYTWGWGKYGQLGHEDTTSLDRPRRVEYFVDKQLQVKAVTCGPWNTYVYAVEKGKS
UniProt Q8TDY2, whole entry, looked up: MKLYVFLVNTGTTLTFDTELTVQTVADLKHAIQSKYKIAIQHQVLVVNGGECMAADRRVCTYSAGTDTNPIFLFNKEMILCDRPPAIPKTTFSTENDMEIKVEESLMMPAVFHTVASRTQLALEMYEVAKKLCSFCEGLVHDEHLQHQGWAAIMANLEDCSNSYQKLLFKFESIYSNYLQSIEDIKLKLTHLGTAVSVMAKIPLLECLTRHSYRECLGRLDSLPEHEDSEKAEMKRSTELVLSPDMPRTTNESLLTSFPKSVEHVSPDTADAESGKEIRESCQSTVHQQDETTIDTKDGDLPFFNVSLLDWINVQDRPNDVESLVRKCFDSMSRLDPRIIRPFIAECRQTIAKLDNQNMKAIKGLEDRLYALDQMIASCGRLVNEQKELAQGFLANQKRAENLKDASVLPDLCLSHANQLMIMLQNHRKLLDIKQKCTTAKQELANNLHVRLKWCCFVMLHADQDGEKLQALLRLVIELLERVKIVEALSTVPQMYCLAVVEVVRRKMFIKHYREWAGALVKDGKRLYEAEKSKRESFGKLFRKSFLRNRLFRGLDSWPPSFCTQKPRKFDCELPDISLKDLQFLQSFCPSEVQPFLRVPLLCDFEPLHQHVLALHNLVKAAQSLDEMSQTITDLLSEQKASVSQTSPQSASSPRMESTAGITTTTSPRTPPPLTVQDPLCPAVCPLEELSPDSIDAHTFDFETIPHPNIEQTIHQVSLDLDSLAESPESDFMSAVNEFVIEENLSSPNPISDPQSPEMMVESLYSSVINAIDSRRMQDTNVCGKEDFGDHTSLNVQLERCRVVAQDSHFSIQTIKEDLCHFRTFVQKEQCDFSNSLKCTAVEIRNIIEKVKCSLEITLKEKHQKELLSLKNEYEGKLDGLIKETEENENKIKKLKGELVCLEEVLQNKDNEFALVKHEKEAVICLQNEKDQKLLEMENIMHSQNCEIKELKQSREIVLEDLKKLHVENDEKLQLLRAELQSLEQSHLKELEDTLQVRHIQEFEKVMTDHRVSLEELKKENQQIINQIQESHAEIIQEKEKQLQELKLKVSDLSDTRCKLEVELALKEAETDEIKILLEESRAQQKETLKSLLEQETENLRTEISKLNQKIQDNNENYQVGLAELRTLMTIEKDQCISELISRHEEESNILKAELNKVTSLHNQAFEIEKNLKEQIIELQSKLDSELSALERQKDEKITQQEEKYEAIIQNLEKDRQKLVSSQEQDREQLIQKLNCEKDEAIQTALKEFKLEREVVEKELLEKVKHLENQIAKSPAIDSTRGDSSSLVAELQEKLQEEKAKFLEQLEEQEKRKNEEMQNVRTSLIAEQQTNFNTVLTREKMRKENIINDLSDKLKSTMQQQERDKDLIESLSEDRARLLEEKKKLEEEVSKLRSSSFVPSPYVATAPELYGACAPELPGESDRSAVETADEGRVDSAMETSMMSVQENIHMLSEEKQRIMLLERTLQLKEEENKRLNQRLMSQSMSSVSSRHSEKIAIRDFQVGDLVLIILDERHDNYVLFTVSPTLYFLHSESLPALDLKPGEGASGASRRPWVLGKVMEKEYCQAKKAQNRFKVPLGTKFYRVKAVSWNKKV
UniProt Q9Y580: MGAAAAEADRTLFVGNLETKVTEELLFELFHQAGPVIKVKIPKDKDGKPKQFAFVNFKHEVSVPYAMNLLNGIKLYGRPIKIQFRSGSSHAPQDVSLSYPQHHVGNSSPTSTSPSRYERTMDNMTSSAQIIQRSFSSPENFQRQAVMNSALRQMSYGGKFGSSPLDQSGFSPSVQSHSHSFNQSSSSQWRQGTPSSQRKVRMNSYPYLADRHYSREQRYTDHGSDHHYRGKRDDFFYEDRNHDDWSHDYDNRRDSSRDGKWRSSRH
UniProt Q02094: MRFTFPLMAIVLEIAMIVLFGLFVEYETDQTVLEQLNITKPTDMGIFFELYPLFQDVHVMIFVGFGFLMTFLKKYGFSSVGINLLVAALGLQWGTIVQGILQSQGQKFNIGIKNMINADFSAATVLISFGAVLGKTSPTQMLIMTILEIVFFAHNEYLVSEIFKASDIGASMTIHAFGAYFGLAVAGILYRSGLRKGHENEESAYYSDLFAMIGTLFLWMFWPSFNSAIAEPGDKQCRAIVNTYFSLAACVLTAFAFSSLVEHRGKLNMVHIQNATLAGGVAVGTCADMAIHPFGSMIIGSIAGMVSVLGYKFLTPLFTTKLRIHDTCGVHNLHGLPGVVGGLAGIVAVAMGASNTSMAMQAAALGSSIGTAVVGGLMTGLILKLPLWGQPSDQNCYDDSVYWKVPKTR
UniProt Q9H6H4: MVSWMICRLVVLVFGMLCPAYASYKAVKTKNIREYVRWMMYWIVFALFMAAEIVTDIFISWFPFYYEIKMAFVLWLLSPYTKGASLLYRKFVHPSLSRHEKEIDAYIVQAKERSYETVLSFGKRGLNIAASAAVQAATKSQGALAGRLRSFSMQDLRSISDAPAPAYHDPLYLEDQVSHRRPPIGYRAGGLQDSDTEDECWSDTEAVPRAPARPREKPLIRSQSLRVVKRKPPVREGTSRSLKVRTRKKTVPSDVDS
UniProt P18754: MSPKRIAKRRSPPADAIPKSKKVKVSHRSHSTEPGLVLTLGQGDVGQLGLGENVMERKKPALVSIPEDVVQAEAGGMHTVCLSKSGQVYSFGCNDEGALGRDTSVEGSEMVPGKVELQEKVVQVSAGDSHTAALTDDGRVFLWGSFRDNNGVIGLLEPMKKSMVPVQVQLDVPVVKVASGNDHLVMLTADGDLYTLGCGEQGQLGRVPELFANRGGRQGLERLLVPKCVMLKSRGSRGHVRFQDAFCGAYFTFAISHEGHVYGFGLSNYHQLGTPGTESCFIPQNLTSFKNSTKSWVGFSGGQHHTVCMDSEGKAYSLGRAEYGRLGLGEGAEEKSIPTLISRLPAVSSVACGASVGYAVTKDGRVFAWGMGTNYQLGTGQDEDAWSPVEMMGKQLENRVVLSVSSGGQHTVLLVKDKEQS
UniProt Q8NBN7: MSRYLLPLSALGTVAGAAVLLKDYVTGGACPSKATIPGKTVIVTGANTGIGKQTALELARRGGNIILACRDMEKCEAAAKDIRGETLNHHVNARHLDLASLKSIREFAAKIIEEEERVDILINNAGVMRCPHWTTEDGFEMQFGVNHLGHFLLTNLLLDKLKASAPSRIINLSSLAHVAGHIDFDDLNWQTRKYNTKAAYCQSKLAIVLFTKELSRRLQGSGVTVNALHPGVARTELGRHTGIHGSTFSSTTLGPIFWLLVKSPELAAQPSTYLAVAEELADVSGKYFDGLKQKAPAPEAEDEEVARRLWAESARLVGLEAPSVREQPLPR

Columns and labels:
Assay in all cases: log2 fold change, soluble protein after heating vs DMSO (PISA); higher = thermal stabilisation; K562 lysate, 10 uM; active = over 0.2 and 3.5 SD of the protein, either way, in both replicates (recomputed)
alvocidib = compound: CN1CC[C@H](c2c(O)cc(O)c3c(=O)cc(-c4ccccc4Cl)oc23)[C@H](O)C1 [alvocidib]
Outline: (§1)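 The values are log-two fold changes in thermal stability compared with solvent controls and come from duplicates. They were obtained by TMTpro 16plex LC-MS/MS, with channel sums equalised, on the supernatant after 21,000xg for 90 min. That supernatant came from crude K562 extract at 1 mg/mL protein treated with 10 μM compound for 30 min, heated for 3 min across 48°C-58°C, pooled and brought to 0.5% NP-40 at 4°C.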

Tubastatin A = compound: CN1CCc2c(c3ccccc3n2Cc2ccc(C(=O)NO)cc2)C1 [Tubastatin A]
Outline: as §1

[1] = compound: CNC(=O)C1=CC=CC=C1NC2=NC(=NC=C2Cl)NC3=C(C=C(C=C3)N4CCOCC4)OC
Outline: as §1

defactinib = compound: CNC(=O)c1ccc(Nc2ncc(C(F)(F)F)c(NCc3nccnc3N(C)S(C)(=O)=O)n2)cc1 [defactinib]
Outline: as §1

[2] = compound: CNc1nc(-c2ccc3c(N)n[nH]c3c2)cc(N2C[C@@H](C(=O)NC3CCCCC3)CC[C@H]2C)n1
Outline: as §1

encorafenib = compound: COC(=O)N[C@@H](C)CNc1nccc(-c2cn(C(C)C)nc2-c2cc(Cl)cc(NS(C)(=O)=O)c2F)n1 [encorafenib]
Outline: as §1

[3] = compound: COC(=O)[C@H](CCSC)NC(=O)C1=C(C=C(C=C1)NC[C@H](CS)N)C2=CC=CC=C2
Outline: as §1

alisertib = compound: COc1cc(Nc2ncc3c(n2)-c2ccc(Cl)cc2C(c2c(F)cccc2OC)=NC3)ccc1C(=O)O [alisertib]
Outline: as §1

[4] = compound: COc1cc2nc(-c3cc(F)ccc3O)nc(N[C@@H]3CNC[C@H]3C(C)(C)O)c2cc1OC
Outline: as §1

gefitinib = compound: COc1cc2ncnc(Nc3ccc(F)c(Cl)c3)c2cc1OCCCN1CCOCC1 [gefitinib]
Outline: as §1

lapatinib = compound: CS(=O)(=O)CCNCc1ccc(-c2ccc3ncnc(Nc4ccc(OCc5cccc(F)c5)c(Cl)c4)c3c2)o1 [lapatinib]
Outline: as §1

pictilisib = compound: CS(=O)(=O)N1CCN(Cc2cc3nc(-c4cccc5[nH]ncc45)nc(N4CCOCC4)c3s2)CC1 [pictilisib]
Outline: as §1

crizotinib = compound: C[C@@H](Oc1cc(-c2cnn(C3CCNCC3)c2)cnc1N)c1c(Cl)ccc(F)c1Cl [crizotinib]
Outline: as §1

[5] = compound: C[C@H](C1=CC=C(C=C1)C(=O)NC2=C3C=CNC3=NC=C2)N
Outline: as §1

duvelisib = compound: C[C@H](Nc1ncnc2nc[nH]c12)c1cc2cccc(Cl)c2c(=O)n1-c1ccccc1 [duvelisib]
Outline: as §1

gandotinib = compound: Cc1cc(Nc2cc(CN3CCOCC3)c3nc(C)c(Cc4ccc(Cl)cc4F)n3n2)n[nH]1 [gandotinib]
Outline: as §1

tozasertib = compound: Cc1cc(Nc2cc(N3CCN(C)CC3)nc(Sc3ccc(NC(=O)C4CC4)cc3)n2)n[nH]1 [tozasertib]
Outline: as §1

doramapimod = compound: Cc1ccc(-n2nc(C(C)(C)C)cc2NC(=O)Nc2ccc(OCCN3CCOCC3)c3ccccc23)cc1 [doramapimod]
Outline: as §1

bafetinib = compound: Cc1ccc(NC(=O)c2ccc(CN3CC[C@H](N(C)C)C3)c(C(F)(F)F)c2)cc1Nc1nccc(-c2cncnc2)n1 [bafetinib]
Outline: as §1

[6] = compound: Cc1cccc(CC(=O)N2CCc3c2ccc(-c2cn(C)c4ncnc(N)c24)c3F)n1
Outline: as §1

Measured: log2 fold change

RCN2 isoform 2 (UniProt Q14257)
inactive: alvocidib 0.009 | Tubastatin A -0.055 | [1] 0.021 | defactinib 0 | [2] -0.108 | encorafenib -0.002 | [3] -0.029 | alisertib -0.001 | [4] 0.009 | gefitinib -0.019 | lapatinib 0.002 | pictilisib 0.017 | crizotinib 0.009 | [5] 0.029 | duvelisib 0.031 | gandotinib 0.003 | tozasertib 0.047 | doramapimod -0.046 | bafetinib -0.032 | [6] -0.025

RFK (UniProt Q969G6)
inactive: alvocidib 0.011 | Tubastatin A 0.001 | [1] 0.007 | defactinib 0.006 | [2] -0.143 | encorafenib 0.007 | [3] -0.019 | alisertib 0.004 | [4] 0.047 | gefitinib 0.022 | lapatinib -0.005 | pictilisib 0.003 | crizotinib 0.031 | [5] -0.053 | duvelisib 0.048 | gandotinib 0.082 | tozasertib -0.078 | doramapimod 0.022 | bafetinib -0.084 | [6] -0.004

RGP1 (UniProt Q92546)
inactive: alvocidib -0.152 | Tubastatin A -0.17 | [1] -0.025 | defactinib -0.135 | [2] -0.088 | encorafenib 0.094 | [3] -0.083 | alisertib -0.008 | [4] 0.087 | gefitinib -0.083 | lapatinib -0.062 | pictilisib -0.089 | crizotinib -0.133 | [5] -0.074 | duvelisib 0.038 | gandotinib 0.072 | tozasertib -0.037 | doramapimod 0.015 | bafetinib 0.136 | [6] 0.329

RCN1 (UniProt Q15293)
inactive: alvocidib -0.023 | Tubastatin A -0.006 | [1] 0.018 | defactinib -0.012 | [2] -0.076 | encorafenib -0.013 | [3] 0.016 | alisertib -0.012 | [4] 0.027 | gefitinib 0.059 | lapatinib 0.001 | pictilisib -0.036 | crizotinib 0.115 | [5] -0.009 | duvelisib 0.008 | gandotinib 0.012 | tozasertib 0.038 | doramapimod -0.046 | bafetinib -0.052 | [6] -0.018

RBM6 (UniProt P78332)
inactive: alvocidib -0.084 | Tubastatin A -0.135 | [1] 0.009 | defactinib 0.029 | [2] 0.018 | encorafenib 0.023 | [3] 0.001 | alisertib -0.031 | [4] 0.101 | gefitinib 0.015 | lapatinib -0.108 | pictilisib -0.009 | crizotinib 0.045 | [5] -0.005 | duvelisib 0 | gandotinib 0.091 | tozasertib -0.052 | doramapimod -0.017 | bafetinib 0.034 | [6] 0.083

RCE1 (UniProt Q9Y256)
inactive: alvocidib -0.037 | Tubastatin A 0.023 | [1] -0.039 | defactinib 0.271 | [2] 0.064 | encorafenib 0.011 | [3] -0.068 | alisertib -0.125 | [4] 0.057 | gefitinib 0.19 | lapatinib 0.189 | pictilisib -0.003 | crizotinib -0.04 | [5] 0.006 | duvelisib 0.042 | gandotinib -0.131 | tozasertib -0.029 | doramapimod -0.11 | bafetinib 0.032 | [6] 0.01

RFC5 (UniProt P40937)
inactive: alvocidib 0.004 | Tubastatin A -0.203 | [1] 0.003 | defactinib 0.008 | [2] -0.004 | encorafenib 0.051 | [3] 0.148 | alisertib -0.006 | [4] -0.003 | gefitinib 0 | lapatinib 0.007 | pictilisib -0.058 | crizotinib -0.056 | [5] -0.047 | duvelisib 0.016 | gandotinib -0.068 | tozasertib 0.018 | doramapimod 0.026 | bafetinib -0.039 | [6] 0.018

RBPJ (UniProt Q06330)
inactive: alvocidib 0.01 | Tubastatin A 0.044 | [1] 0.005 | defactinib 0.052 | [2] -0.002 | encorafenib -0.002 | [3] 0.002 | alisertib -0.013 | [4] 0.01 | gefitinib 0.039 | lapatinib -0.005 | pictilisib -0.077 | crizotinib -0.009 | [5] -0.004 | duvelisib 0.039 | gandotinib -0.027 | tozasertib 0.023 | doramapimod 0.046 | bafetinib -0.011 | [6] -0.023

RCCD1 (UniProt A6NED2)
inactive: alvocidib -0.055 | Tubastatin A -0.011 | [1] -0.033 | defactinib 0.044 | [2] 0 | encorafenib -0.047 | [3] -0.006 | alisertib -0.013 | [4] 0.033 | gefitinib 0.019 | lapatinib -0.003 | pictilisib -0.048 | crizotinib 0.012 | [5] 0.112 | duvelisib -0.021 | gandotinib -0.026 | tozasertib 0.061 | doramapimod -0.036 | bafetinib 0.109 | [6] 0.025

RB1CC1 (UniProt Q8TDY2)
inactive: alvocidib -0.02 | Tubastatin A -0.006 | [1] 0.031 | defactinib -0.033 | [2] 0.026 | encorafenib -0.012 | [3] -0.031 | alisertib -0.015 | [4] 0.018 | gefitinib -0.001 | lapatinib -0.009 | pictilisib -0.029 | crizotinib -0.048 | [5] -0.031 | duvelisib 0.006 | gandotinib 0.062 | tozasertib -0.007 | doramapimod -0.006 | bafetinib -0.036 | [6] 0.046

RBM7 (UniProt Q9Y580)
inactive: alvocidib 0.026 | Tubastatin A -0.204 | [1] 0.034 | defactinib 0.023 | [2] -0.051 | encorafenib 0.037 | [3] 0.073 | alisertib -0.027 | [4] 0.007 | gefitinib -0.031 | lapatinib -0.004 | pictilisib -0.065 | crizotinib -0.03 | [5] 0.038 | duvelisib -0.054 | gandotinib -0.012 | tozasertib 0.06 | doramapimod -0.025 | bafetinib 0.04 | [6] -0.007

RHAG (UniProt Q02094)
active: [5] -0.381
inactive: alvocidib -0.133 | Tubastatin A 0.031 | [1] 0.043 | defactinib -0.043 | [2] 0.037 | encorafenib 0.016 | [3] 0.02 | alisertib -0.004 | [4] 0.046 | gefitinib -0.051 | lapatinib -0.046 | pictilisib -0.002 | crizotinib -0.038 | duvelisib 0.113 | gandotinib 0.07 | tozasertib 0.05 | doramapimod 0.032 | bafetinib 0.004 | [6] 0.184

REEP4 (UniProt Q9H6H4)
inactive: alvocidib 0.044 | Tubastatin A -0.068 | [1] -0.047 | defactinib 0.01 | [2] -0.025 | encorafenib 0.01 | [3] -0.049 | alisertib -0.018 | [4] 0.006 | gefitinib -0.043 | lapatinib 0.013 | pictilisib -0.081 | crizotinib -0.036 | [5] -0.007 | duvelisib -0.011 | gandotinib -0.119 | tozasertib -0.016 | doramapimod 0.014 | bafetinib 0.082 | [6] 0.049

RCC1 isoform 2 (UniProt P18754)
inactive: alvocidib 0.012 | Tubastatin A -0.168 | [1] 0.018 | defactinib 0.055 | [2] -0.007 | encorafenib 0.006 | [3] 0.151 | alisertib 0.006 | [4] -0.017 | gefitinib -0.003 | lapatinib -0.018 | pictilisib 0.009 | crizotinib -0.063 | [5] -0.019 | duvelisib 0.017 | gandotinib -0.066 | tozasertib 0.011 | doramapimod -0.017 | bafetinib -0.01 | [6] 0.034

Taken from the entries so far (four entries):
RGP1 (UniProt Q92546)
inactive: alvocidib -0.152 | Tubastatin A -0.17 | [1] -0.025 | defactinib -0.135 | [2] -0.088 | encorafenib 0.094 | [3] -0.083 | alisertib -0.008 | [4] 0.087 | gefitinib -0.083 | lapatinib -0.062 | pictilisib -0.089 | crizotinib -0.133 | [5] -0.074 | duvelisib 0.038 | gandotinib 0.072 | tozasertib -0.037 | doramapimod 0.015 | bafetinib 0.136 | [6] 0.329

RCN1 (UniProt Q15293)
inactive: alvocidib -0.023 | Tubastatin A -0.006 | [1] 0.018 | defactinib -0.012 | [2] -0.076 | encorafenib -0.013 | [3] 0.016 | alisertib -0.012 | [4] 0.027 | gefitinib 0.059 | lapatinib 0.001 | pictilisib -0.036 | crizotinib 0.115 | [5] -0.009 | duvelisib 0.008 | gandotinib 0.012 | tozasertib 0.038 | doramapimod -0.046 | bafetinib -0.052 | [6] -0.018

RBM6 (UniProt P78332)
inactive: alvocidib -0.084 | Tubastatin A -0.135 | [1] 0.009 | defactinib 0.029 | [2] 0.018 | encorafenib 0.023 | [3] 0.001 | alisertib -0.031 | [4] 0.101 | gefitinib 0.015 | lapatinib -0.108 | pictilisib -0.009 | crizotinib 0.045 | [5] -0.005 | duvelisib 0 | gandotinib 0.091 | tozasertib -0.052 | doramapimod -0.017 | bafetinib 0.034 | [6] 0.083

RCE1 (UniProt Q9Y256)
inactive: alvocidib -0.037 | Tubastatin A 0.023 | [1] -0.039 | defactinib 0.271 | [2] 0.064 | encorafenib 0.011 | [3] -0.068 | alisertib -0.125 | [4] 0.057 | gefitinib 0.19 | lapatinib 0.189 | pictilisib -0.003 | crizotinib -0.04 | [5] 0.006 | duvelisib 0.042 | gandotinib -0.131 | tozasertib -0.029 | doramapimod -0.11 | bafetinib 0.032 | [6] 0.01

The results go on.

RBM8A (UniProt Q9Y5S9)
inactive: alvocidib 0.086 | Tubastatin A 0.024 | [1] -0.024 | defactinib 0.017 | [2] -0.256 | encorafenib 0.002 | [3] -0.069 | alisertib 0 | [4] -0.062 | gefitinib -0.024 | lapatinib 0.01 | pictilisib 0.017 | crizotinib 0.135 | duvelisib -0.014 | gandotinib -0.209 | tozasertib 0.06 | doramapimod -0.038 | bafetinib -0.017 | [6] -0.2
active: [5] 0.277

RDH13 (UniProt Q8NBN7)
inactive: alvocidib 0.018 | Tubastatin A -0.162 | [1] -0.001 | defactinib 0.1 | [2] 0.051 | encorafenib -0.115 | [3] -0.068 | alisertib 0.011 | [4] -0.076 | gefitinib -0.015 | lapatinib -0.025 | pictilisib -0.015 | crizotinib -0.039 | [5] -0.019 | duvelisib 0.038 | gandotinib -0.11 | tozasertib 0.073 | doramapimod -0.019 | bafetinib -0.073 | [6] 0.047
